The other results are listed elsewhere or left out. Most entries show no effect beyond the scatter of the controls.
compound: CN[C@@H]1C[C@H]2O[C@@](C)([C@@H]1OC)n1c3ccccc3c3c4c(c5c6ccccc6n2c5c31)C(=O)NC4 [staurosporine]; test: log2 fold change of tryptic peptide abundance, ligand vs vehicle (limited proteolysis) (log2 ratio); higher = more trypsin-susceptible (destabilized); settings: ligand concentration: 20 uM; sample: mouse liver crude lysate; replicate design: treated separately

Amino acid sequences for entries named in this document (tags omitted). A change or cut given only in a name is not applied to a line headed by its entry.
UniProt Q9QWR8: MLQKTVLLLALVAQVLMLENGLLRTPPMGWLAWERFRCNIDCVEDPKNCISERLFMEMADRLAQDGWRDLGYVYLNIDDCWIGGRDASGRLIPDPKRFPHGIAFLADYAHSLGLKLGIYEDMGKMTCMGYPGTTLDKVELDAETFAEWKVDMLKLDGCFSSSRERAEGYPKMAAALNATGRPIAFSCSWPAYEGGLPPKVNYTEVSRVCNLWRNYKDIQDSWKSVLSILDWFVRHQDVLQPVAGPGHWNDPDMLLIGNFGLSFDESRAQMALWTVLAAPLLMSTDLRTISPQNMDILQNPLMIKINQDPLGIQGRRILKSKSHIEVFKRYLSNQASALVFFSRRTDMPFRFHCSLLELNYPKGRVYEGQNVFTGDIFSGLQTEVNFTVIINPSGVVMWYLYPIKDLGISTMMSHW
UniProt Q9JM95: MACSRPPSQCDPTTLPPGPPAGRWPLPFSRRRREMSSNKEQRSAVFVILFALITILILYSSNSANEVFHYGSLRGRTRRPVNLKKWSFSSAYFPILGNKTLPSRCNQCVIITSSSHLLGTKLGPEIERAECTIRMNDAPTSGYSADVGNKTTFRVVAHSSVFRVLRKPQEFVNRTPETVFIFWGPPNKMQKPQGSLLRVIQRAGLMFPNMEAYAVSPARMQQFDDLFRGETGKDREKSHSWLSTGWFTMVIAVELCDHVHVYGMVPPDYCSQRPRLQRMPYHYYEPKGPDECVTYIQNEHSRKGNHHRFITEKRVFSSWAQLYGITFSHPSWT
UniProt Q9JK92: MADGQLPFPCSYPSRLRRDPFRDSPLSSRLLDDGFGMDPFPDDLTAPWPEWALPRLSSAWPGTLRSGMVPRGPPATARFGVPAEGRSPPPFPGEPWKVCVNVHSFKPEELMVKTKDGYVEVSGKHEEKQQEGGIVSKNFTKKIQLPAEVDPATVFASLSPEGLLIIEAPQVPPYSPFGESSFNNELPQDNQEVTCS
UniProt Q9JHE7: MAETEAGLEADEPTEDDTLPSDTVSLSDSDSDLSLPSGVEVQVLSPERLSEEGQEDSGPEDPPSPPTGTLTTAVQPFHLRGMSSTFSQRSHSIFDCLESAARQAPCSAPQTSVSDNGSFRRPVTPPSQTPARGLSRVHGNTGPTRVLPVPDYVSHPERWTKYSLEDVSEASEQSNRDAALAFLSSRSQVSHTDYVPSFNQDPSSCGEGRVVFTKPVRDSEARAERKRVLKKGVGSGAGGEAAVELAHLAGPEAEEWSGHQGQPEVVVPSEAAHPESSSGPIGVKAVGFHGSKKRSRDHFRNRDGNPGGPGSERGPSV
UniProt Q9QX47: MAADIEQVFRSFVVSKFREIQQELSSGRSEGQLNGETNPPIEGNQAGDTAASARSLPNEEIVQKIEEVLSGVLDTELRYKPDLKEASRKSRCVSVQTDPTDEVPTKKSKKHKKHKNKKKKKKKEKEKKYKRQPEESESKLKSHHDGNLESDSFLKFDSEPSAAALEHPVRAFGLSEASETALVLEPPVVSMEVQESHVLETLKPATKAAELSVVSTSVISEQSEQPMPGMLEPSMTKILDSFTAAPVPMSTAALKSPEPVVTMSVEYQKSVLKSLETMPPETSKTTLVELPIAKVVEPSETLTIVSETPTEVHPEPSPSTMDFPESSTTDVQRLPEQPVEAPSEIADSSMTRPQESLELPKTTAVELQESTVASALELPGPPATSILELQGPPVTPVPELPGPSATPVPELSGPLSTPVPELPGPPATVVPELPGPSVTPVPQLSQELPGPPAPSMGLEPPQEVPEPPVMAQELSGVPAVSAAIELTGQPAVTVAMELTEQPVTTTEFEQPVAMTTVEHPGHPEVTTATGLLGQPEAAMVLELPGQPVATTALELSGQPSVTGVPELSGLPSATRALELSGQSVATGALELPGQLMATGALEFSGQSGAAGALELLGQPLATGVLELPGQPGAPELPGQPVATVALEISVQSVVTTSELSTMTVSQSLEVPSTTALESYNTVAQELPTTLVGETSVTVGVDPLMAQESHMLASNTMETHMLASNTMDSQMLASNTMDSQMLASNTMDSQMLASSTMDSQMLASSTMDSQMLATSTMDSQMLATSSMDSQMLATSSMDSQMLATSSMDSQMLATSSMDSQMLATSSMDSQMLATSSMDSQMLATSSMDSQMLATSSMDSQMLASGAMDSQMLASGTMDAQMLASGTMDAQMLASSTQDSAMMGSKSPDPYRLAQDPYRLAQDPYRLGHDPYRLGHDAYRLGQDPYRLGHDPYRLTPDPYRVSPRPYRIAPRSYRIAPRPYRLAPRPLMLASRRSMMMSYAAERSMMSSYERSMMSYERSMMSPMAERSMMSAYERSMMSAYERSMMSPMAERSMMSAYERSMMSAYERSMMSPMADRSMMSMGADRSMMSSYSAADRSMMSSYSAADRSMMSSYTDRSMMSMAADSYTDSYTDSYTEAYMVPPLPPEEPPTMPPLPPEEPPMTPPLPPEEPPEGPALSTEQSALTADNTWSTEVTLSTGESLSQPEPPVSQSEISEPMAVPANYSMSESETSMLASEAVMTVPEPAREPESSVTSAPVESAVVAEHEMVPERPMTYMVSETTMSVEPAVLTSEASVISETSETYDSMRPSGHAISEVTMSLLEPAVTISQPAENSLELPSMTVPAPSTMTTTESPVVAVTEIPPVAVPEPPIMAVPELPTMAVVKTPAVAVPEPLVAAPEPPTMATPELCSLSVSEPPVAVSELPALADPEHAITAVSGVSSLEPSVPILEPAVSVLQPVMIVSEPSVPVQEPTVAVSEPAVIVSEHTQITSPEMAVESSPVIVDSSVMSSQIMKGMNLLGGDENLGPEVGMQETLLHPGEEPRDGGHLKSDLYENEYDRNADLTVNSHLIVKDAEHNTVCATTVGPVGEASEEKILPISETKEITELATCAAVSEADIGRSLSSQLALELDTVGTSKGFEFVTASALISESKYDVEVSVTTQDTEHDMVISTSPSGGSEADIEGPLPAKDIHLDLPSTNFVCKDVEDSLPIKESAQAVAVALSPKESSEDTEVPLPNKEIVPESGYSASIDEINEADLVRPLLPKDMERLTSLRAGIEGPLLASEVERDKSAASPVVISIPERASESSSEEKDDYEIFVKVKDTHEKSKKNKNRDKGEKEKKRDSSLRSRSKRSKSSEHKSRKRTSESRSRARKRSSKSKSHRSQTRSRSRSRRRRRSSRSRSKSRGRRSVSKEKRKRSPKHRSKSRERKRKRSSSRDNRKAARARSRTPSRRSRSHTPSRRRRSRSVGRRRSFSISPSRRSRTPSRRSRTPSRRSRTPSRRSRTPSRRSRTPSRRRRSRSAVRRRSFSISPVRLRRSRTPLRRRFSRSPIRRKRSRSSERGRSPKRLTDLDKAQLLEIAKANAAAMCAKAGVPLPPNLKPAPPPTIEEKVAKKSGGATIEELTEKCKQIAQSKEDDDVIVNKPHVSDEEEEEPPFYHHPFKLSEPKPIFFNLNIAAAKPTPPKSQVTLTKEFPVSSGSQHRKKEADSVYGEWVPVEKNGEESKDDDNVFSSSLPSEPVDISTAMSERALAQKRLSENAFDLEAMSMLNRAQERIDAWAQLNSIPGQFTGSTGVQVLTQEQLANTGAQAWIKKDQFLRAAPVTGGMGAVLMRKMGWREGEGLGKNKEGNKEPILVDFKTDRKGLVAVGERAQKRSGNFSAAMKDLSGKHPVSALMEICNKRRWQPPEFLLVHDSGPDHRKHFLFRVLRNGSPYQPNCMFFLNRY
UniProt Q9JMK2: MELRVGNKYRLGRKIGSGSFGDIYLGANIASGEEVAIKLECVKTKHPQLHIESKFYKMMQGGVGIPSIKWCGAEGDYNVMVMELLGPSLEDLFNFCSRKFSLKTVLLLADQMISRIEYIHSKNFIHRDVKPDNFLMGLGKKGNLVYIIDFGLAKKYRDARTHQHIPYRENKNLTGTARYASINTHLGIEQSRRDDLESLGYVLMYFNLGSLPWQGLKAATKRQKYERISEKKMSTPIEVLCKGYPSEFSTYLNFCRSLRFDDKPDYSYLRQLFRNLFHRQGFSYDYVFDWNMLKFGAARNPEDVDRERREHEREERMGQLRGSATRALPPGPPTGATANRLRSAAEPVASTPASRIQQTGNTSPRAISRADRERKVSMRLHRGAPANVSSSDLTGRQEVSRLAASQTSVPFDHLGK
UniProt Q9ESX4: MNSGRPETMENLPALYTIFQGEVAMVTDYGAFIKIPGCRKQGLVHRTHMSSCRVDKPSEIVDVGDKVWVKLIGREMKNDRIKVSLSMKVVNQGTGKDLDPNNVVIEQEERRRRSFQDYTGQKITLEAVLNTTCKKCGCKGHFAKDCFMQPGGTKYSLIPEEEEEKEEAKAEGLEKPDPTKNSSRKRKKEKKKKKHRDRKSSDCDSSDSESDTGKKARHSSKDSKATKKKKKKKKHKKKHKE
UniProt Q9ES56, whole entry: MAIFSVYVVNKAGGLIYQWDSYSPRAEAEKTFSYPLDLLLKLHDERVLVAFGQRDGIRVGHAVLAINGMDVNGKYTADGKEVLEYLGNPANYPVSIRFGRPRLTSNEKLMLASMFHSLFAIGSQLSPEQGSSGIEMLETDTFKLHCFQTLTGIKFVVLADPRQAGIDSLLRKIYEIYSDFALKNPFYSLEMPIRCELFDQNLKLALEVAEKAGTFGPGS
UniProt Q9ET22, whole entry: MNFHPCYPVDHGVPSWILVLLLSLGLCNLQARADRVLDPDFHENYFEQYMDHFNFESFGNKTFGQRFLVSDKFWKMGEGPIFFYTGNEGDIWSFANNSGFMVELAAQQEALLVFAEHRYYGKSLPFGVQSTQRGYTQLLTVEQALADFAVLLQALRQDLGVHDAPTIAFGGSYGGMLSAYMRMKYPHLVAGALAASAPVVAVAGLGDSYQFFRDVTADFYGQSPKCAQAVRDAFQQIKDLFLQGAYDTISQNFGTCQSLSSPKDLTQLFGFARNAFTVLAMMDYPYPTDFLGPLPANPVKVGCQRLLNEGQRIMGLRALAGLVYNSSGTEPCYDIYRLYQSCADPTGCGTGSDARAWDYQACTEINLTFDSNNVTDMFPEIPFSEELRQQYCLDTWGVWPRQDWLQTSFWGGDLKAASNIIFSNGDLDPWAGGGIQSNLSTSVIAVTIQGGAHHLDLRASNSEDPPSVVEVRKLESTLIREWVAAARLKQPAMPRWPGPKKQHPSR
UniProt Q9ES97: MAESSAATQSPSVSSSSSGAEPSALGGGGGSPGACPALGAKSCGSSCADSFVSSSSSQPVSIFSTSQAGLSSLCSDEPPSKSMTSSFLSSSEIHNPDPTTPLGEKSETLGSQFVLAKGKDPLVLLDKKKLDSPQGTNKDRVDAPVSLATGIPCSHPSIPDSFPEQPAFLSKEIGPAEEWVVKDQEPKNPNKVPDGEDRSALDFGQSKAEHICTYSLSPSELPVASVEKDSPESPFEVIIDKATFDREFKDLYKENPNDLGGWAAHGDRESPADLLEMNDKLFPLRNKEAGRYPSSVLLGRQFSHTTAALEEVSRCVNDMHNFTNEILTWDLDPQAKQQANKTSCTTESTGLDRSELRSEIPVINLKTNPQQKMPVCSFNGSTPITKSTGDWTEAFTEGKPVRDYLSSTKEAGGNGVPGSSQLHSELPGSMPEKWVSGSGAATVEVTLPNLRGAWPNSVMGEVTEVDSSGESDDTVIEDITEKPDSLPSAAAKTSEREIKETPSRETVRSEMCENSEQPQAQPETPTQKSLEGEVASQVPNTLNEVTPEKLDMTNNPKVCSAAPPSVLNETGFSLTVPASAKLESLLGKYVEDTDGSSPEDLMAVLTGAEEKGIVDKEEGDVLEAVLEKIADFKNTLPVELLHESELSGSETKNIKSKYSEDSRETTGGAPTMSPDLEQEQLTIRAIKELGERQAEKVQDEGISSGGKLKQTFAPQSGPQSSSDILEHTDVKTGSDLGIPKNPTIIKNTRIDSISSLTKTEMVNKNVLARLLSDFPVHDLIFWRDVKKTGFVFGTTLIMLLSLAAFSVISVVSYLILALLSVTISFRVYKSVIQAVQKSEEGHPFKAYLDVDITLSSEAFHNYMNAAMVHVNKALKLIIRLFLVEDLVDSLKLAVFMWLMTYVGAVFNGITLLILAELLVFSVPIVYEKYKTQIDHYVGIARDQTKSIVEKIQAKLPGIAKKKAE
UniProt Q9JM73: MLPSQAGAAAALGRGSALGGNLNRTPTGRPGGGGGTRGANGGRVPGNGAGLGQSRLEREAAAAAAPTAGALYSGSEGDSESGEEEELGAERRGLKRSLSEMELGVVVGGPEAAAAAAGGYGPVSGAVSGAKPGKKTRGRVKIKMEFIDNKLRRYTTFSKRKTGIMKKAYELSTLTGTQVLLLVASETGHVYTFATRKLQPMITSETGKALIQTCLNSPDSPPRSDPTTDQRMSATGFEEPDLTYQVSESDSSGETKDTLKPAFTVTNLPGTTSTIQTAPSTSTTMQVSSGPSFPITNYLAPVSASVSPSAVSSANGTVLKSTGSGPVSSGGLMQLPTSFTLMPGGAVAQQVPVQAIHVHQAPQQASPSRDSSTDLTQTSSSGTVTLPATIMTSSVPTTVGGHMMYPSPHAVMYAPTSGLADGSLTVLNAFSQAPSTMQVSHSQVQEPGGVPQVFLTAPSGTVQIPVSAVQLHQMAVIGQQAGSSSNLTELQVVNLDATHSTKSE

| Target | log2 fold change |
| --- | --- |
| UniProt Q9QWR8 (peptide sequence: FPHGIAFLADYAHSLGLK, peptide start residue: 98) | 0.742 |
| UniProt Q9JM95 (peptide sequence: VVAHSSVFR, peptide start residue: 155) | 0.341 |
| UniProt Q9JK92 (peptide sequence: TKDGYVEVSGK, peptide start residue: 114) | -0.131 |
| UniProt Q9JHE7 (peptide sequence: DGNPGGPGSER, peptide start residue: 303) | -0.244 |
| UniProt Q9QX47 (peptide sequence: EGNKEPILVDFK, peptide start residue: 2347) | -0.299 |
| UniProt Q9JMK2 (peptide sequence: SAAEPVASTPASR, peptide start residue: 343) | -0.198 |
| UniProt Q9ESX4 (peptide sequence: RSFQDYTGQK, peptide start residue: 113) | 0.322 |
| UniProt Q9ES56 (peptide sequence: FGRPRLTSNEK, peptide start residue: 98) | 0.32 |
| UniProt Q9ET22 (peptide sequence: KLESTLIR, peptide start residue: 473) | 0.135 |
| UniProt Q9ES97 (peptide sequence: SIVEKIQAK, peptide start residue: 946) | 0.373 |
| UniProt Q9JM73 (peptide sequence: IKMEFIDNK, peptide start residue: 142) | 0.0854 |

Reprinted at random: two records from the list

| Target | log2 fold change |
| --- | --- |
| UniProt Q9JMK2 (peptide sequence: SAAEPVASTPASR, peptide start residue: 343) | -0.198 |
| UniProt Q9ES56 (peptide sequence: FGRPRLTSNEK, peptide start residue: 98) | 0.32 |

Source: the supplement of paper PMC12819154, “High-throughput peptide-centric local stability assay extends protein–ligand identification to membrane proteins, tissues and bacteria” (Nature Structural & Molecular Biology, 2025)
